Source: PubChem BioAssay AID504834 (National Center for Advancing Translational Sciences (NCATS), 2011)
Out of some 320,000 compounds screened, about 22,000 (6.9%) were called active. Inconclusive means that the source gave no clear call. Such entries were picked first, then a sample of the others. Calls follow the shape of the dose curve; as a rule, active = well fitted inhibition curve with a large enough effect; inconclusive = small, poorly fitted or top-dose-only effect, or another doubt; inactive = no such curve, though single readings can be large or run the other way. Potencies of inconclusive entries are doubtful fits and often do not repeat.

Test: Primary qHTS for delayed death inhibitors of the malarial parasite plastid, 96 hour incubation
Conditions: P. falciparum luciferase reporter growth; series mostly up to 28.7 µM
In short: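 Readout is luminescence from an integrated firefly luciferase in P. falciparum. Red cells, 2% hematocrit and 0.05% parasitemia final, were cultured with compound through two parasite generations (96 hours) at 37 C, 5% CO2.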
Potency is read from the fitted curve at half-maximal effect.

SMILES	Potency
CCOc1ccc(/C=N/NC(=O)C2CC2)cc1OC	inconclusive: 18.5 µM [inhibitor, single point]
CCCc1ccc2oc(C(=O)N(C)CCn3ccnc3C)c(C)c2c1	inactive
COc1ccc(NS(=O)(=O)c2ccc3nc(COc4ccc5ccccc5c4)[nH]c3c2)cc1	inconclusive: 14.7 µM [inhibitor, single point]
Cc1cc(/C=C(\C#N)C(=O)O)c(C)n1CC1CCCO1 (centres undefined)	inactive
CCn1cc(CN2CCN(Cc3ccc(OC)c(C)c3C)C(CCO)C2)c(C)n1 (centres undefined)	inconclusive: 14.7 µM [inhibitor, single point]
COc1ccc(-c2nnn(CC(=O)Nc3ccc4c(c3)OCCO4)n2)cc1OC	inconclusive: 18.5 µM [inhibitor, partial curve, poor fit]
Cc1cc(NC(=O)CCC(=O)N(c2ccccc2)C(C(=O)NC2CCCC2)c2ccccc2F)no1 (centres undefined)	inconclusive: 18.5 µM [inhibitor, single point]
COC(=O)c1cc(NC(=O)c2cc(C(C)(C)C)nn2Cc2cccc(C)c2)ccc1N1CCOCC1	inconclusive: 4.65 µM [inhibitor, partial curve]
O=Cc1ccccc1OCCN1CCCC1=O	inactive
COc1ccc(-c2nc(CSCC(=O)NCc3ccc4c(c3)OCO4)c(C)o2)cc1	active: 5.86 µM
Brc1ccc(C[n+]2ccccc2)cc1	active: 7.38 µM
O=C(c1ccc(COc2ccccc2Cl)o1)N1CCN(Cc2ccc3c(c2)OCO3)CC1	inactive
CCN(CCCNC(=O)CNC(=O)c1nn(-c2ccc(OC)cc2)c(=O)c2ccccc12)c1cccc(C)c1	inconclusive: 13.1 µM [inhibitor, single point]
C/C(O)=c1/ccc2cccc3nc(C)nc1c23	inconclusive: 13.1 µM [inhibitor, single point]
CCCCCCOC(=O)C1=C(C)NC(=O)NC1c1ccc2c(c1)OCO2 (centres undefined)	inconclusive: 13.1 µM [inhibitor, single point]
O=C(CCN1CCN(c2ccccc2)CC1)Nc1ccccc1F	inactive
O=C(CSc1nnc(-c2n[nH]c3ccccc23)n1-c1ccccc1)Nc1ccccc1Cl	inconclusive: 5.22 µM [inhibitor, partial curve]
Cc1c2cnn(CC(=O)Nc3c(F)c(F)cc(F)c3F)c(=O)c2c(C)n1Cc1ccccc1F	active: 9.28 µM
CCN1CCN(C(=S)Nc2cccc(Cl)c2)CC1	inconclusive: 0.117 µM [inhibitor, full curve, poor fit]
NC(=O)c1ccccc1NC(=O)/C=C/c1cccc(Cl)c1	inactive
CC(C)(C)C(=O)Cn1ncc(NC2CC2)c(Br)c1=O	inactive
COc1ccc(-c2nc(N)ncc2-c2csc(C)n2)c(O)c1OC	inactive
CN(C(=O)Cc1c(C(=O)O)n(C)c2ccccc12)c1cccc(C(F)(F)F)c1	inactive
c1ccc(CNn2nnnc2-c2ccccc2)cc1	inactive
CCOc1cc(NS(=O)(=O)c2ccc(NC(C)=O)cc2)c(OCC)cc1NC(=O)c1cccs1	inactive

An excerpt from further up:
SMILES	Potency
O=C(c1ccc(COc2ccccc2Cl)o1)N1CCN(Cc2ccc3c(c2)OCO3)CC1	inactive
CCN(CCCNC(=O)CNC(=O)c1nn(-c2ccc(OC)cc2)c(=O)c2ccccc12)c1cccc(C)c1	inconclusive: 13.1 µM [inhibitor, single point]

Next results:

SMILES	Potency
Cc1cc(=O)[nH]c(N/N=C/c2cccc(Br)c2)n1	inactive
Cc1cc(OCC(=O)c2ccc(Br)cc2)ccc1N1C(=O)CCC1=O	inconclusive: 10.4 µM [inhibitor, single point]
O=C(CNC(=S)N(CCCN1CCOCC1)Cc1cccs1)NCCCN1CCOCC1	inconclusive: 0.738 µM [inhibitor, full curve, poor fit]
Cc1[nH]c2ccccc2c1C(O)CN1CCC2(CC1)OCCO2 (centres undefined)	inactive
Cc1ccc(C(=O)N2CCN(S(=O)(=O)N3CCCCC3)CC2)cc1	active: 10.4 µM
CCc1cccc(NC(=O)CSC2=NS(=O)(=O)c3ccccc32)c1	inactive
O=C(OCC(=O)N1CCN(C(=O)COC(=O)c2ccncc2)CC1)c1ccncc1	inconclusive: 18.5 µM [inhibitor, single point]
COc1ccccc1NC(=O)CCc1nnc2ccc(N3CCC4(CC3)OCCO4)nn12	inconclusive: 4.15 µM [inhibitor, single point]
Cc1ccc([N+](=O)[O-])cc1NC(=O)c1ccc(C(C)(C)C)cc1	inconclusive: 18.5 µM [inhibitor, single point]
COc1cccc(-n2c(N)c(-c3nc4ccccc4[nH]3)sc2=S)c1	inactive
O=C(NCCCO)C(=O)NCc1ccccn1	inactive
Cc1cccc(C)c1NC(=O)CCCSc1nnnn1C	inconclusive: 0.0294 µM [inhibitor, full curve, poor fit]
O=C(O)c1cccc(S(=O)(=O)N(Cc2ccccc2)c2cccc(C(F)(F)F)c2)c1	inactive
COCCN(C(=O)COC(=O)C12CC3CC(CC(Cl)(C3)C1)C2)c1c(N)n(Cc2ccccc2)c(=O)[nH]c1=O	inconclusive: 1.47 µM [inhibitor, full curve]
CCc1ccc(OCc2ccc(C(=O)OC)o2)cc1	inactive
CC(C)CC(=O)OC1C(N2CCOCC2)c2c(ccc(/C=C/C(=O)N3CCOCC3)c2O)OC1(C)C (centres undefined)	active: 2.62 µM
COc1ccc(NC(=O)NN(C(=O)c2ccccc2)C(C)(C)C)cc1	inactive
COc1cc(OC)c2ccc(=O)oc2c1C(CCN1CCCC(C)C1)c1ccc2c(c1)OCO2 (centres undefined)	active: 10.4 µM
CC1(C)CC(=O)C(C=NCCN2CCN(CC(=O)Nc3ccc(Cl)cc3)CC2)=C(O)C1	inactive
N/C(Cc1ccc(Cl)cc1)=N\OC(=O)c1ccc2ccccc2c1	active: 10.4 µM
Cc1cccc(NC(=O)C2CCN(C(=O)[C@@H]3Cc4ccccc4CN3)CC2)c1	inactive
Cc1cccn2c(=O)c(/C=C(\C#N)C(N)=O)c(N3CCN(Cc4ccc5c(c4)OCO5)CC3)nc12	active: 10.4 µM
Clc1ccc(-c2nc3ccncc3[nH]2)cc1	inactive
c1ccc(CNc2nc(NCc3ccccc3)c3ccccc3n2)cc1	active: 0.738 µM
CC(C)N(CCO)C(=O)C(c1ccccc1)c1ccccc1	inconclusive: 11.7 µM [inhibitor, single point]

Among those listed so far, 3 contain a furan ring, fused or not.
SMILES	Potency
CCCc1ccc2oc(C(=O)N(C)CCn3ccnc3C)c(C)c2c1	inactive
O=C(c1ccc(COc2ccccc2Cl)o1)N1CCN(Cc2ccc3c(c2)OCO3)CC1	inactive
CCc1ccc(OCc2ccc(C(=O)OC)o2)cc1	inactive

The list goes on.

SMILES	Potency
O=C(NCc1cccc(Cl)c1)c1cccc(S(=O)(=O)N2CCCCC2)c1	inconclusive: 18.5 µM [inhibitor, single point]
O=C(NNC(=S)NC(=O)C12CC3CC(CC(C3)C1)C2)c1ccncc1	active: 3.29 µM
COc1ccc(C)cc1NC(=O)C(Sc1nnc(Nc2cc(C)ccc2OC)s1)c1ccccc1 (centres undefined)	active: 10.4 µM
Cc1ccc(C)c(N2CCN(c3ncccc3[N+](=O)[O-])CC2)c1	inconclusive: 0.0033 µM [inhibitor, full curve, poor fit]
Cc1nc2nc[nH]n2c(=O)c1C/C=C/c1ccccc1	inconclusive: 11.7 µM [inhibitor, single point]
COc1cccc(N(CC(=O)NC2CCCCCC2)S(=O)(=O)c2ccccc2)c1	active: 13.1 µM
Cc1cccc2cc(CN(Cc3ccccc3)C(=O)N(C)C)c(=O)[nH]c12	inconclusive: 18.5 µM [inhibitor, single point]
Cc1cccc(OCCSc2nc3ccccc3n2CCC(=O)O)c1	inconclusive: 5.22 µM [inhibitor, partial curve, poor fit]
CCOC(=O)C1CCN(C(=O)c2cccc(NS(=O)(=O)c3ccc(F)c(F)c3)c2)CC1	inconclusive: 10.4 µM [inhibitor, single point]
O=C(Nc1ccc([N+](=O)[O-])cc1)OCCc1ccccn1	inconclusive: 9.28 µM [inhibitor, partial curve, poor fit]
Fc1ccccc1-c1nc(NCc2ccccc2)c2ccccc2n1	inconclusive: 14.7 µM [inhibitor, partial curve, poor fit]
O=c1c2cc(O)c(O)cc2oc2cc(O)c(C3OC(CO)C(O)C(O)C3O)c(O)c12 (centres undefined)	inactive
O=C(NC(Cc1ccccc1)c1nc2ccccc2[nH]1)C1CC(=O)N(c2ccc3c(c2)OCCO3)C1 (centres undefined)	active: 2.94 µM
CCc1nnc(NC(=O)CCC(=O)NC2CCCC2)s1	inconclusive: 11.7 µM [inhibitor, single point]
CCN(CC(=O)Nc1cccc(OC)c1)CC(=O)Nc1ccc(Br)c(C)c1	inactive
O=C1CC(=C(c2ccccc2)c2ccccc2)C(=O)N1CCCCN1CCN(c2ccccc2)CC1	active: 3.29 µM
Cc1ccc(S(=O)(=O)NCCC(=O)NC2CCCCC2C)cc1 (centres undefined)	inconclusive: 8.28 µM [inhibitor, partial curve, poor fit]
Cc1ccc(-c2nc3ccc(Cl)cc3c(=O)n2O)cc1	inconclusive: 20.8 µM [inhibitor, partial curve, poor fit]
Nc1nc(=S)c2[nH]cnc2[nH]1	inconclusive: 8.28 µM [inhibitor, partial curve, poor fit]
Cc1ccc(C(=O)Cn2ncsc2=N)cc1	inactive
CCOC(=O)C1CCN(C(=O)c2ccccc2NC(=O)C2=C(C)OCCS2)CC1	inconclusive: 18.5 µM [inhibitor, single point]
NS(=O)(=O)c1ccccc1NC(=S)Nc1ccccc1S(N)(=O)=O	inconclusive: 1.47 µM [inhibitor, full curve, poor fit]
CCC1(c2ccc(C)cc2)NC(=O)N(CC(=O)Nc2cccc(S(=O)(=O)N3CCCC3)c2)C1=O (centres undefined)	inconclusive: 14.7 µM [inhibitor, partial curve, poor fit]
Cc1occc1-c1nnc(SCC(=O)Nc2ccccc2-c2ccccc2)n1C	inconclusive: 2.08 µM [inhibitor, full curve, poor fit]
